For the experiment, the system named is BDF1 mice, P388 leukemia ip, median survival T/C. The experiment in a line: NCI In Vivo Anticancer Drug Screen. Data for tumor model P388 Leukemia (intraperitoneal) in B6D2F1 (BDF1) mice. The note with it: T/C endpoint: median survival time, higher T/C = longer survival. The method in brief: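 Survival ratio, drug arm over vehicle arm, in mice with a transplanted tumour.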

Where [1] appears, read: dose: 400.0 mg/kg/injection, schedule: Q04DX003 (ip), vehicle: saline with Tween-80.
Where [2] appears, read: dose: 50.0 mg/kg/injection, schedule: Q01DX009 (ip), vehicle: saline.
Setting [3] is: dose: 100.0 mg/kg/injection, schedule: Q01DX009 (ip), vehicle: saline with Tween-80.
[4] abbreviates: dose: 900.0 micrograms/kg/injection, schedule: Q04DX003 (ip), vehicle: saline + alcohol.
The mark [5] stands for this setting: dose: 50.0 mg/kg/injection, schedule: Q01DX009 (ip), vehicle: saline with Tween-80.
[6] abbreviates: dose: 200.0 mg/kg/injection, schedule: Q01DX009 (ip), vehicle: saline with Tween-80.
The mark [7] stands for this setting: dose: 200.0 mg/kg/injection, schedule: Q04DX003 (ip), vehicle: saline.

The list shows only some results of the screen, not a fair sample: it gathers tests that were run many times, whatever their T/C, doses with no T/C, and many T/C values between a quarter and a half above the control. Further doses and runs are listed elsewhere. T/C: endpoint of the treated group in % of that of the vehicle group. Some entries give survivors of the animals treated and no T/C: the source files T/C as zero there, which appears to mark a toxic dose or a test without result, not a measured value. Some survivor counts are full or nearly so, which does not show that the dose was tolerated: survival well below the control is almost never listed, so the zero probably covers shortened survival too. Survivors were counted at the toxicity check, usually on the fifth day, unless a day is given; later deaths do not show. Schedules are NCI's codes, taken here to give the interval after Q, in days (D) or hours (H), and the number of doses after X. Where survival is the endpoint, this PubChem deposit counts one and a half times the control or more as active, and values a quarter to a half above the control carry no call in these data; other NCI protocols may use other cut-offs. Some T/C values are followed by the survivors on the day toxicity was checked, most often the fifth; where none is given, no animal had died by that day. Some entries were tested several times; the results are listed from low to high. Positions of bridges follow the written chain, without caps; N, C: chain ends. Non-standard residues stand in square brackets, D forms with d. Residues, ends and D or L forms follow the SMILES beside them. Pip(4-oxo) = O=C1CCN[CH](C(=O)O)C1; NMeV = CN[CH](C(=O)O)C(C)C; Sar = CNCC(=O)O

Take `CC(C(O)c1cccs1)C(O)(C(F)(F)F)C(F)(F)F` (stereo not drawn): under setting [1], the survivor count was 6 of 6.

Take `CC1(C)N=C(N)N=C(N)N1c1ccc(OCCCOc2ccc(S(=O)(=O)F)cc2)c(Cl)c1`: the T/C (dose: 1.5 mg/kg/injection, schedule: Q01DX009 (ip), vehicle: saline) was 136 % of control; the T/C (dose: 2.3 mg/kg/injection, schedule: Q01DX009 (ip), vehicle: saline) was 136 % of control; the T/C (dose: 3.6 mg/kg/injection, schedule: Q01DX009 (ip), vehicle: saline) is 135 % of control; the T/C (dose: 5.4 mg/kg/injection, schedule: Q01DX009 (ip), vehicle: saline) was 140 % of control; the T/C (dose: 6.25 mg/kg/injection, schedule: Q01DX009 (ip), vehicle: saline) is 131 % of control; the T/C (dose: 8.25 mg/kg/injection, schedule: Q01DX009 (ip), vehicle: saline) was 133 % of control. Where the note is “dose: 12.5 mg/kg/injection, schedule: Q01DX009 (ip), vehicle: saline”, the T/C was 125 and 136 % of control [5 of 6 alive]. The survivor count under setting [2] is listed as 4 of 6 and the survivor count (dose: 75.0 mg/kg/injection, schedule: Q04DX003 (ip), vehicle: saline) is reported as 3 of 6.

As to `CN(C)CCCn1c(=O)c2ccccc2c2ccccc21`, the survivor count (dose: 100.0 mg/kg/injection, schedule: Q01DX010 (ip), vehicle: saline) is listed as 3 of 6.

As to `COC1=C(N=[N+]=[N-])C(=O)C(OC)=C(N=[N+]=[N-])C1=O`, the survivor count by setting is: (dose: 60.0 mg/kg/injection, schedule: Q04DX003 (ip), vehicle: saline) 3 of 6; (dose: 135.0 mg/kg/injection, schedule: Q04DX003 (ip), vehicle: saline) 1 of 6.

For the compound `COC(=O)c1cc(Cl)ccc1OCC(=O)Nc1ccc([N+](=O)[O-])cc1`, the survivor count (dose: 200.0 mg/kg/injection, schedule: Q04DX003 (ip), vehicle: Klucel (hydroxypropylcellulose) (HPC)) is 6 of 6.

With `COc1ccc2c(c1O)-c1cccc3c1[C@@H](C2)N(CCCl)CC3`, where the note is “dose: 12.5 mg/kg/injection, schedule: Q04DX003 (ip), vehicle: saline with Tween-80”, the T/C is 127 % of control. Moreover, the survivor count was 6 of 6 (dose: 100.0 mg/kg/injection, schedule: Q04DX003 (ip), vehicle: saline with Tween-80); 1 of 6 (dose: 200.0 mg/kg/injection, schedule: Q04DX003 (ip), vehicle: saline with Tween-80); 0 of 6 under setting [1].

Consider `COc1ccc(CC2C(=O)NC(C)C(=O)N(C)C3C(=O)N(C)C(Cc4ccc(O)c(c4)Oc4ccc(cc4)C3O)C(=O)NC(C)C(=O)NC(C)C(=O)N2C)cc1` (stereo not drawn), for which the T/C is, setting by setting: (dose: 0.04 mg/kg/injection, schedule: Q01DX009 (ip), vehicle: saline) 134 % of control; (dose: 0.07 mg/kg/injection, schedule: Q01DX009 (ip), vehicle: saline) 139 % of control; (dose: 0.25 mg/kg/injection, schedule: Q01DX009 (ip), vehicle: distilled water + Tween-80) 142 % of control; (dose: 0.5 mg/kg/injection, schedule: Q01DX009 (ip), vehicle: distilled water + Tween-80) 149 % of control; (dose: 2.0 mg/kg/injection, schedule: Q01DX009 (ip), vehicle: distilled water + Tween-80) 149 % of control; (dose: 20.0 micrograms/kg/injection, schedule: Q01DX009 (ip), vehicle: alcohol) 144 % of control. In addition, the T/C is 126 % of control (dose: 40.0 micrograms/kg/injection, schedule: Q01DX009 (ip), vehicle: alcohol) and 136 % of control [6 of 8 alive] (dose: 4000.0 micrograms/kg/injection, schedule: Q04DX003 (ip), vehicle: other). The survivor count reads like this: (dose: 4.0 mg/kg/injection, schedule: Q01DX009 (ip), vehicle: distilled water + Tween-80) 5 of 6; (dose: 4.32 mg/kg/injection, schedule: Q04DX003 (ip), vehicle: other) 4 of 8; (dose: 7.2 mg/kg/injection, schedule: Q04DX003 (ip), vehicle: other) 1 of 8; (dose: 12.0 mg/kg/injection, schedule: Q04DX003 (ip), vehicle: other) 0 of 8; (dose: 20.0 mg/kg/injection, schedule: Q04DX003 (ip), vehicle: other) 0 of 8.

Consider `[NH-]C(CCC(N)=O)C(=O)O.[NH-]C(CCC(N)=O)C(=O)O.[Zn+2]` (stereo not drawn), for which the survivor count under setting [3] is recorded as 2 of 6.

`O=C(/C=C/c1cccc2ccccc12)c1ccc(Cl)cc1`: where the note is “dose: 400.0 mg/kg/injection, schedule: Q01DX009 (ip), vehicle: Klucel (hydroxypropylcellulose) (HPC)”, the survivor count is recorded as 0 of 6.

`CCOc1ccc2nc3cc(N)ccc3c(N)c2c1`: the T/C reads like this: (dose: 100.0 mg/kg/injection, schedule: Q04DX003 (ip), vehicle: saline) 126 % of control; (dose: 150.0 mg/kg/injection, schedule: Q04DX003 (ip), vehicle: saline) 127 % of control.

Consider `CC(C)C1NC(=O)C(N)C(C)OC(=O)C(C(C)C)N(C)C(=O)CN(C)C(=O)C2CC(=O)CCN2C1=O` (stereo not drawn) (tested in a mixture with another compound) (H-TV[Pip(4-oxo)][Sar][NMeV]; ester 1-C; configuration not given here), for which the T/C runs as follows: (dose: 200.0 micrograms/kg/injection, schedule: Q01DX009 (ip), vehicle: saline + alcohol) 135 % of control; (dose: 450.0 micrograms/kg/injection, schedule: Q04DX003 (ip), vehicle: saline + alcohol) 132 and 139 % of control; under setting [4], 141 % of control. The survivor count under setting [4] is 8 of 8.

With `N#Cc1nc(C#N)c(Sc2ccccc2)c(Sc2ccccc2)c1Sc1ccccc1`, the T/C under setting [5] is 125 % of control and the T/C under setting [3] is 132 % of control. Besides, the survivor count reads like this: under setting [3], 3 of 6; under setting [6], 3 of 6.

Consider `CN1CCN(C(=O)Nc2ccc(N=Nc3ccccc3)cc2)CC1`, for which the survivor count (dose: 200.0 mg/kg/injection, schedule: Q04DX003 (ip), vehicle: saline sonified) was 6 of 6.

For the compound `CC1(C)COCN1COCCCOCN1COCC1(C)C`, the T/C runs as follows: under setting [5], 148 % of control; under setting [3], 139 % of control. Also, under setting [6], the survivor count was 2 of 6.

`Clc1ccccc1/C=C/C=C1c2ccccc2-c2ccccc21`: the survivor count was 5 of 6 under setting [3]; 6 of 6 under setting [6]; 5 of 6 (dose: 400.0 mg/kg/injection, schedule: Q01DX009 (ip), vehicle: saline with Tween-80).

Turning to `CCN(CC)CCOCCO`, the T/C under setting [7] was 125 % of control.

Regarding `Nc1ncnc2c1nnn2C1OC(CO)C(O)C1O` (stereo not drawn), the survivor count (dose: 118.5 mg/kg/injection, schedule: Q01DX009 (ip), vehicle: Klucel (hydroxypropylcellulose) (HPC)) is 10 of 10.

As to `COC12C(COC(=O)NCCO)C3=C(C(=O)C(C)=C(N)C3=O)N1CC1NC12` (stereo not drawn), under setting [2], the survivor count is 6 of 6.

Regarding `CCN(CC)CCNC1=CC(=S)NC(C)(C)C1`, the T/C under setting [3] was 144 % of control.

As to `O=c1oc2ccccc2cc1-c1csc(/C=N/N2CCOCC2)n1`, the survivor count under setting [6] is listed as 5 of 6.

For `CC(=O)N(C(C)=O)c1cc([N+](=O)[O-])ccc1C`, the survivor count under setting [1] is given as 5 of 6.

In the case of `COC(=O)C1=C(C)NC(=O)NC1c1ccc(N(CCCl)CCCl)c(OC)c1` (stereo not drawn), the T/C (dose: 0.9 mg/kg/injection, schedule: Q01DX009 (ip), vehicle: saline with Tween-80) is 146 % of control.

With `CN(C)c1ccc(N=Cc2cc[n+](C)cc2)cc1`, for the setting “dose: 25.0 mg/kg/injection, schedule: Q01DX009 (ip), vehicle: saline”, the T/C was 127 and 127 % of control [5 of 6 alive].

Consider `CCCCNC(C)(C)CO`, for which the survivor count runs as follows: under setting [7], 0 of 6; (dose: 400.0 mg/kg/injection, schedule: Q04DX003 (ip), vehicle: saline) 0 of 6.

`Nc1ccc(OC(=O)Oc2ccc(N)cc2)cc1`: the survivor count (dose: 600.0 mg/kg/injection, schedule: Q01DX009 (ip), vehicle: saline with Tween-80) was 0 of 6.

On to `Cc1nc(Cl)c2c(n1)Oc1nc(C)nc(Cl)c1C2c1ccc(Cl)cc1`, for which, for the setting “dose: 200.0 mg/kg/injection, schedule: Q01DX001 (ip), vehicle: Klucel (hydroxypropylcellulose) (HPC)”, the survivor count is recorded as 6 of 6.

Consider `CC(Cc1ccccc1)C(N)=O` (stereo not drawn), for which, under setting [1], the survivor count is on record as 5 of 6.
